These results are taken from paper PMC10535696.

By UniProt entry, the sequences of proteins in these tests, tags left out.
UniProt Q14790: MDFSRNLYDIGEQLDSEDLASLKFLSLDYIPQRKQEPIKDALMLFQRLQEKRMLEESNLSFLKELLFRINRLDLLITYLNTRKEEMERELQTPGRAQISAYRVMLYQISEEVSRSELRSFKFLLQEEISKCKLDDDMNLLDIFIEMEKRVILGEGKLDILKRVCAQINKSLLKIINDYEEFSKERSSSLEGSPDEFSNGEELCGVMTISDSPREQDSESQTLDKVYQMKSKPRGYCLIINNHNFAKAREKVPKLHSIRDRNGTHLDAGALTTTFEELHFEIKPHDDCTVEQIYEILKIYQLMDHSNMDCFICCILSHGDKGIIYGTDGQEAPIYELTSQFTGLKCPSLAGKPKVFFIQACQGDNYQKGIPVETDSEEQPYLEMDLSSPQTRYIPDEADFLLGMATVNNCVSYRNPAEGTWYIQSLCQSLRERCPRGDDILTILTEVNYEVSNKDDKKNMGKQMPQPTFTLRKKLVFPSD
UniProt Q9ULZ3: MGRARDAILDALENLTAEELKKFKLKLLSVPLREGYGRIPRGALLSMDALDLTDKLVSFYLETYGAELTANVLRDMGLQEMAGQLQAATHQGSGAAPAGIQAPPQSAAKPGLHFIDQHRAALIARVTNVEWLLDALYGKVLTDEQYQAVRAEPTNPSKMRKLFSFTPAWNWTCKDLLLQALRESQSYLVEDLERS
UniProt Q9Y572: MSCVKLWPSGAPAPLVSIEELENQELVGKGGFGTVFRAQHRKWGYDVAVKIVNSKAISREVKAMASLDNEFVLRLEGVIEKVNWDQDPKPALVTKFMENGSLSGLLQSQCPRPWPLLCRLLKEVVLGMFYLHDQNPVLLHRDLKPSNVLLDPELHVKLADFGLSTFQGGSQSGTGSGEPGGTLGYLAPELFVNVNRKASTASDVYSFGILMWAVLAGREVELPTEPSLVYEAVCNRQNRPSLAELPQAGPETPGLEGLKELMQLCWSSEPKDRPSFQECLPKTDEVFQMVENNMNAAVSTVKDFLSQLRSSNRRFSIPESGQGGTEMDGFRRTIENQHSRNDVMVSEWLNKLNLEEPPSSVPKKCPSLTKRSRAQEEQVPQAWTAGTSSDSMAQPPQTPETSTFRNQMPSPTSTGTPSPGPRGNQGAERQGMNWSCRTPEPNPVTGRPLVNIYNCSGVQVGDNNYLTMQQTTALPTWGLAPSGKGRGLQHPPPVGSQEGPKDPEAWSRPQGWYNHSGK

Results are given in words; binding and its absence hold for the method and conditions named. Binding seen in cells or lysates may run through a third protein. Some binding calls cover weakened binding; strength is not graded here.

The target in this assay is Caspase 8 (human (endogenous in LY1 and LY3)) (UniProt Q14790). Description: co-IP; lysates (RIPA buffer) of LY1 and LY3 cells transfected with LV-STING; anti-CASP8 mouse antibody or normal mouse IgG overnight at 4 C, protein A/G PLUS-agarose beads 4 hours at 4 C; immunoblot. For orientation: A western blot detects proteins with antibodies after separation by electrophoresis.

On to “apoptosis-associated speck-like protein containing CARD (from UniProt Q9ULZ3 1-195)”, for which the binding result is “binds”. Then “receptor-interacting protein kinase 3 (from UniProt Q9Y572 1-518)”, with “binds”.
